Source: paper PMC12523365

By UniProt entry, the sequences of proteins in these tests, tags left out.
UniProt Q9Y6R4: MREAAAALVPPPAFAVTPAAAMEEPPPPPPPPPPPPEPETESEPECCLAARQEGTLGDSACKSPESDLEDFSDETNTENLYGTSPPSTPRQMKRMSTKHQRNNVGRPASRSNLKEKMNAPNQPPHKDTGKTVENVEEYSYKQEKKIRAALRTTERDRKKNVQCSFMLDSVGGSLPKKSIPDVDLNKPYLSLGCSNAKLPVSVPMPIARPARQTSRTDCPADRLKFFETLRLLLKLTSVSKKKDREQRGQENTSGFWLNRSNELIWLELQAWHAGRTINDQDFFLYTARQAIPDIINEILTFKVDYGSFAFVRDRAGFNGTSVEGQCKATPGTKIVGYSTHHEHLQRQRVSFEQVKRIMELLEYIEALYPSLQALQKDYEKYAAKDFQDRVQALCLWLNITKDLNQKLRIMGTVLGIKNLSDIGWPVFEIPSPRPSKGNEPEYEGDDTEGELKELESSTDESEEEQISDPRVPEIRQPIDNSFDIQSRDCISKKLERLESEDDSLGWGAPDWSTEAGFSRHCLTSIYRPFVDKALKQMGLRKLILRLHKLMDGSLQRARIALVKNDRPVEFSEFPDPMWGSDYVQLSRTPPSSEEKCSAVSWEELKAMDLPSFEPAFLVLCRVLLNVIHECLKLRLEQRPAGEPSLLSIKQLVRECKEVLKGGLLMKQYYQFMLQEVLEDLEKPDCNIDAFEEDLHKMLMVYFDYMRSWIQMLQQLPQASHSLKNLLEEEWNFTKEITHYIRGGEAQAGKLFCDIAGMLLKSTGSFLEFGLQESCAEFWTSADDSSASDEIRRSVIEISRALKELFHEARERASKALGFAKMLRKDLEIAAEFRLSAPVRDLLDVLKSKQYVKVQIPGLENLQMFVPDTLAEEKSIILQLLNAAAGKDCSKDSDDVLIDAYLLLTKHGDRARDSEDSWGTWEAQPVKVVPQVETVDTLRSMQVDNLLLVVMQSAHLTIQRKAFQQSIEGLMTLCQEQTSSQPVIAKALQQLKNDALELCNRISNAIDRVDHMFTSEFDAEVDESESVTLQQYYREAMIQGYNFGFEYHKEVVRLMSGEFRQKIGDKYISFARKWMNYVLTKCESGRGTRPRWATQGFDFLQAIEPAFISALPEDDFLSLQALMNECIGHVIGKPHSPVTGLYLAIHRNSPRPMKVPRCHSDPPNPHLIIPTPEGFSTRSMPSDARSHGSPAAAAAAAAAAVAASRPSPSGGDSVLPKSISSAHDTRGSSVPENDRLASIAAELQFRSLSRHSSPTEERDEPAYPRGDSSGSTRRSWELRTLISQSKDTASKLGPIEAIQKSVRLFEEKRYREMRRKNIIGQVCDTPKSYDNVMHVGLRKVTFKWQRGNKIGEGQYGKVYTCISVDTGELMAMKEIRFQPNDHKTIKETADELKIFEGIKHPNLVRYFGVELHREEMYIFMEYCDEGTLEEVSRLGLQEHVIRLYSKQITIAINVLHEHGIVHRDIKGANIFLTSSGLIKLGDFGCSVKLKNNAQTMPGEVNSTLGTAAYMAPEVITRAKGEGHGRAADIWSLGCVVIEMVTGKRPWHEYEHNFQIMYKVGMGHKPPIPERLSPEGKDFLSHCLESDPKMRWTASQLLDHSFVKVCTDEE

T1: Growth arrest and DNA damage protein 45 beta (Gadd45B), 3xFLAG-tagged (human) (UniProt O75293)
T1 sequence: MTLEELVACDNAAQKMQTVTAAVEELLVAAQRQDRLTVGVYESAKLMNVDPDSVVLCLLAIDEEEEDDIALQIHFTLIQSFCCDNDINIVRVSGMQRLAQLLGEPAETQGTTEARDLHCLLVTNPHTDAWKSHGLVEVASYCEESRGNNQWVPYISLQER

B1: MYC-binding protein (MYCBP) (protein, UniProt Q99417 1-103)
chain: MAHYKAADSKREQFRRYLEKSGVLDTLTKVLVALYEEPEKPNSALDFLKHHLGAATPENPEIELLRLELAEMKEKYEAIVEENKKLKAKLAQYEPPQEEKRAE

How the values were obtained:
[1] = target: T1, Growth arrest and DNA damage protein 45 beta (Gadd45B), 3xFLAG-tagged (human); test: affinity purification with mass spectrometry; anti-Flag agarose immunoprecipitation from TPC-1 and Bcpap cells stably overexpressing Flag-Gadd45B; eluates on SDS-PAGE, silver staining, bands excised, in-gel trypsin digestion, nano-LC-MS/MS
[2] = target: T1, Growth arrest and DNA damage protein 45 beta (Gadd45B), 3xFLAG-tagged (human); test: affinity purification with mass spectrometry; IP-MS of Gadd45B-overexpressing Bcpap and K1 cells; primary antibodies and Protein A/G agarose beads; TMT 10-plex labelling
[3] = target: T1, Growth arrest and DNA damage protein 45 beta (Gadd45B), 3xFLAG-tagged (human); test: affinity purification with mass spectrometry; anti-Flag agarose immunoprecipitation from TPC-1 and Bcpap cells stably overexpressing Flag-Gadd45B; eluates on SDS-PAGE, silver staining, bands excised, in-gel trypsin digestion, nano-LC-MS/MS; remark: listed apart in the source

Molecule | binding [1] | binding [2] | binding [3]
MAP3K4, His-tagged (from UniProt Q9Y6R4 1-1608) | binds | – | –
B1 | – | binds | binds

No constants are given. Whether binding was seen depends on the method and setting. Binding seen in cells or lysates may run through a third protein. These calls come from enrichment with a bait or labelling near it, and not all partners need be listed. Sequences can lack the tags named with a protein.
